No constants are given. Whether binding was seen depends on the method and setting. Some results given as binding are weak or reduced against the parent protein; the word gives no strength.
Biological target: human C3d (human) (UniProt P01024)
Test: SPR; C3b (~250 RU) or C3d (~70 RU) amine coupled to adjacent flow cells of a Biacore C1 chip; FH preincubated with or without a 2-fold molar excess of PspCN injected (90 s, 30 μl/min, 400 s dissociation); 1:1 binding model; both purified

Amino acid sequences for entries named in this document (tags omitted). A change or cut given only in a name is not applied to a line headed by its entry. Chains listed by the source or under a name are the forms on record and can include a tag or linker. Residues count along the entry.
UniProt P01024, residues 1002-1303: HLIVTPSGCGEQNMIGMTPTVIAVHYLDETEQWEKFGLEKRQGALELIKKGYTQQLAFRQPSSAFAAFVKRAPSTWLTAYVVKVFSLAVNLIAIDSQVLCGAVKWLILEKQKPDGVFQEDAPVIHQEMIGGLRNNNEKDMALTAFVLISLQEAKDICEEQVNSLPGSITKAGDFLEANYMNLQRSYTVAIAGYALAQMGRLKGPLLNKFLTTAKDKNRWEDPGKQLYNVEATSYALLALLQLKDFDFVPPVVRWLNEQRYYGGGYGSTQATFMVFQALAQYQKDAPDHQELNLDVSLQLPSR
plasma-derived human complement factor H (P08603, residues 19-1231): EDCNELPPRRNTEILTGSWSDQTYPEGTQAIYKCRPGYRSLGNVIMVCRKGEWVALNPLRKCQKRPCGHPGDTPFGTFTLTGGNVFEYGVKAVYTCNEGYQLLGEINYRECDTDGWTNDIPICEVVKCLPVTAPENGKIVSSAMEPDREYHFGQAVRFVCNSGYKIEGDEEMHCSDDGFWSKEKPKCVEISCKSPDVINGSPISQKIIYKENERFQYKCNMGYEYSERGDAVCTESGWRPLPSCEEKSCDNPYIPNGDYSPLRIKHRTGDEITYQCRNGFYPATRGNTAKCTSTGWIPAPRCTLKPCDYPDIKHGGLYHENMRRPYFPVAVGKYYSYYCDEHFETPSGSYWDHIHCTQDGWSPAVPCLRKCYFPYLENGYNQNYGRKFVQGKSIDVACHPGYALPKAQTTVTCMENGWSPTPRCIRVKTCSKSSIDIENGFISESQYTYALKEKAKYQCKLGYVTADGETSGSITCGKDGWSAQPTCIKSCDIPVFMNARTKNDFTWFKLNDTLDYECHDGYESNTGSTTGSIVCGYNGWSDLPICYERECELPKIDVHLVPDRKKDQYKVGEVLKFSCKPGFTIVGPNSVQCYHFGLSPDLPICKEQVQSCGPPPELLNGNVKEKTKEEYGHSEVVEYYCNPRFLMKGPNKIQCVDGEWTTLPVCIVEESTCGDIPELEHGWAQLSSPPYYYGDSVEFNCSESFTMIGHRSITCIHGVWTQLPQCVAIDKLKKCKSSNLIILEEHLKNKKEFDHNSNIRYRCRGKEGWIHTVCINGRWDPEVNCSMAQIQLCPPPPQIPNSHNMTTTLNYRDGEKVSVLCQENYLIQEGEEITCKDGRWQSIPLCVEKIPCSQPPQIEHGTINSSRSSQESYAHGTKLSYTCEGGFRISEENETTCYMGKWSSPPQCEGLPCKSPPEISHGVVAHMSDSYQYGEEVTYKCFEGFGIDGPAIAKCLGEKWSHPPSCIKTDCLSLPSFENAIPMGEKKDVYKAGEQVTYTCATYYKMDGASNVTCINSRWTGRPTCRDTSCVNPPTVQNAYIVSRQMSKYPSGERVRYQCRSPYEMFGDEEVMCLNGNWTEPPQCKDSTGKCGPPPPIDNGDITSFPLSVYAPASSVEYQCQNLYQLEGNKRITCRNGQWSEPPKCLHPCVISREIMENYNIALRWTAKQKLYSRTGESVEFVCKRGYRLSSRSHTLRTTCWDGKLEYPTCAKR
recombinant FH(D1119G) (P08603, form named): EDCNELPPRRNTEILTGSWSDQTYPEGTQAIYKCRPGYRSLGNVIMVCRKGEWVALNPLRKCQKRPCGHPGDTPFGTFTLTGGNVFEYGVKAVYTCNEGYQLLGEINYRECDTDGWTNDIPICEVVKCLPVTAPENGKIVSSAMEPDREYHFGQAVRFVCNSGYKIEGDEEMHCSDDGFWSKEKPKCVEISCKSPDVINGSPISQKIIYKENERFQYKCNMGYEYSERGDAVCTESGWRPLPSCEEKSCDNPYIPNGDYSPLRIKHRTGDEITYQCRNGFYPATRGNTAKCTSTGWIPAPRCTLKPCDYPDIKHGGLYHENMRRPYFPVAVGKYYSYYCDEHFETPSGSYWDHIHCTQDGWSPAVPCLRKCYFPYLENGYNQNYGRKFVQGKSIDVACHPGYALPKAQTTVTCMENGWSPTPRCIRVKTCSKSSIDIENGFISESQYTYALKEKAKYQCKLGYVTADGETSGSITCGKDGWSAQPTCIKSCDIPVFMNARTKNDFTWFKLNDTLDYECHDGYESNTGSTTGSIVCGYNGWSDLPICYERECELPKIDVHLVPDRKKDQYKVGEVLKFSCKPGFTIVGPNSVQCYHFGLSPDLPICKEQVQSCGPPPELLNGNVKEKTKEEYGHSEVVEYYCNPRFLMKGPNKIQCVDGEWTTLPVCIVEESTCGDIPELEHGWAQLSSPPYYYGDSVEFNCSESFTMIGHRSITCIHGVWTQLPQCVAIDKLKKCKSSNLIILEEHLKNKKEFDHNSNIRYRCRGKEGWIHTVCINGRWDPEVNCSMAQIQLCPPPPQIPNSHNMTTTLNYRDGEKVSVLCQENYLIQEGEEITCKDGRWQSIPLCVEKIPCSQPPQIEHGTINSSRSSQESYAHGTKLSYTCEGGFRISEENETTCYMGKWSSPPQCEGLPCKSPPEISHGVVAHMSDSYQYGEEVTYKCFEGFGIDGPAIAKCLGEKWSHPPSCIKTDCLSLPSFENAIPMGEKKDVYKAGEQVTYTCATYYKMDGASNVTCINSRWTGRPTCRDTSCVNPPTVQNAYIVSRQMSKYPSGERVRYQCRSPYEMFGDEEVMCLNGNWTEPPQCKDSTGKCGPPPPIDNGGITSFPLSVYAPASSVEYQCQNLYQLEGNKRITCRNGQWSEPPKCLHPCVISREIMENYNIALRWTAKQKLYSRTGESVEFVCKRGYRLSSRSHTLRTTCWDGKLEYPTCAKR

Substance	binding
plasma-derived human complement factor H (from UniProt P08603 19-1231)	binds weakly
recombinant FH(D1119G) (from UniProt P08603 19-1231)	no binding

— publication PMC4635569
